Experimental data reported in US4058659A, “6,8-Disubstituted purine derivatives of 9-β-D-ribofuranosyl 3',5'-cyclic phosphate” (ICN Pharmaceuticals, Inc., priority 1975, dated 1977).
Some results were stated once for a whole list of compounds, not compound by compound.

Test system: protein kinase
Test: Protein kinase activation relative to cyclic AMP
Type: biochemical
Details: compared with cyclic AMP

Structure (SMILES)	protein kinase activation
CNc1ncnc2c1nc(SCc1ccccc1)n2[C@@H]1O[C@@H]2COP(=O)(O)O[C@H]2[C@H]1O [Compound 45, 8-(Benzylthio)-6-(methylamino)-9-β-D-ribofuranosylpurine 3',5'-Cyclic Phosphate]	superior to cyclic AMP
CCCCNc1ncnc2c1nc(Sc1ccc(Cl)cc1)n2[C@@H]1O[C@@H]2COP(=O)(O)O[C@H]2[C@H]1O [Compound 36, 6-n-Butylamino-8-(p-chlorophenylthio)-9-β-D-ribofuranosylpurine 3',5'-Cyclic Phosphate]	superior to cyclic AMP
CCCCNc1ncnc2c1nc(SCc1ccccc1)n2[C@@H]1O[C@@H]2COP(=O)(O)O[C@H]2[C@H]1O [Compound 17, 8-(Benzylthio)-6-(n-butylamino)-9-β-D-ribofuranosylpurine 3',5'-CyclicPhosphate]	superior to cyclic AMP
CCN(CC)c1ncnc2c1nc(SCc1ccccc1)n2[C@@H]1O[C@@H]2COP(=O)(O)O[C@H]2[C@H]1O [Compound 15, 8-(Benzylthio)-6-(diethylamino)-9-β-D-ribofuranosylpurine 3',5'-CyclicPhosphate]	superior to cyclic AMP
CCCN(CCC)c1ncnc2c1nc(SCc1ccccc1)n2[C@@H]1O[C@@H]2COP(=O)(O)O[C@H]2[C@H]1O [Compound 25, 8-(Benzylthio)-6-bis(n-propyl)amino-9-β-D-ribofuranosylpurine 3',5'-Cyclic Phosphate]	superior to cyclic AMP
CN(C)c1ncnc2c1nc(SCc1ccccc1)n2[C@@H]1O[C@@H]2COP(=O)(O)O[C@H]2[C@H]1O [Compound 24, 8-(Benzylthio)-6-dimethylamino-9-β-D-ribofuranosylpurine 3',5'-Cyclic Phosphate]	superior to cyclic AMP
CC(C)CCNc1ncnc2c1nc(SCc1ccccc1)n2[C@@H]1O[C@@H]2COP(=O)(O)O[C@H]2[C@H]1O [Compound 23, 8-(Benzylthio)-6-(3-methylbutylamino)-9-β-D-ribofuranosylpurine 3',5'-Cyclic Phosphate]	superior to cyclic AMP
CCCCN(C)c1ncnc2c1nc(SCc1ccccc1)n2[C@@H]1O[C@@H]2COP(=O)(O)O[C@H]2[C@H]1O [Compound 26, 8-(Benzylthio)-6-(n-butylmethylamino)-9-β-D-ribofuranosylpurine 3',5'-Cyclic Phosphate]	superior to cyclic AMP
CCCNc1ncnc2c1nc(SCc1ccccc1)n2[C@@H]1O[C@@H]2COP(=O)(O)O[C@H]2[C@H]1O [Compound 20, 8-(Benzylthio)-6-n-propylamino-9-β-D-ribofuranosylpurine 3',5'-Cyclic Phosphate]	superior to cyclic AMP
O=P1(O)OC[C@H]2O[C@@H](n3c(Sc4ccc(Cl)cc4)nc4c(Nc5ccccc5)ncnc43)[C@H](O)[C@@H]2O1 [Compound 37, 6-Anilino-8-(p-chlorophenylthio)-9-β-D-ribofuranosylpurine 3',5'-Cylic Phosphate]	superior to cyclic AMP
CCCCCCNc1ncnc2c1nc(SCc1ccccc1)n2[C@@H]1O[C@@H]2COP(=O)(O)O[C@H]2[C@H]1O [Compound 22, 8-(Benzylthio)-6-n-hexylamino-9-β-D-ribofuranosylpurine 3',5'-Cyclic Phosphate]	superior to cyclic AMP
CCN(CC)c1ncnc2c1nc(Sc1ccc(Cl)cc1)n2[C@@H]1O[C@@H]2COP(=O)(O)O[C@H]2[C@H]1O [Compound 35, 8-(p-Chlorophenylthio)-6-(diethylamino)-9-β-D-ribofuranosylpurine 3',5'-Cyclic Phosphate]	superior to cyclic AMP
CCNc1ncnc2c1nc(SCc1ccccc1)n2[C@@H]1O[C@@H]2COP(=O)(O)O[C@H]2[C@H]1O [Compound 19, 8-(Benzylthio)-6-(ethylamino)-9-β-D-ribofuranosylpurine 3',5'-Cyclic Phosphate]	superior to cyclic AMP
O=P1(O)OC[C@H]2O[C@@H](n3c(SCc4ccccc4)nc4c(N5CCCC5)ncnc43)[C@H](O)[C@@H]2O1 [Compound 18, 8-(Benzylthio)-6-pyrrolidino-9-β-D-ribofuranosylpurine 3',5'-Cyclic Phosphate]	superior to cyclic AMP
O=P1(O)OC[C@H]2O[C@@H](n3c(Sc4ccc(Cl)cc4)nc4c(N5CCCCC5)ncnc43)[C@H](O)[C@@H]2O1 [Compound 34, 8-(p-Chlorophenylthio)-6-piperidino-9-β-D-ribofuranosylpurine 3',5'-Cyclic Phosphate]	superior to cyclic AMP
O=P1(O)OC[C@H]2O[C@@H](n3c(SCc4ccccc4)nc4c(N5CCCCC5)ncnc43)[C@H](O)[C@@H]2O1 [Compound 16, 8-(Benzylthio)-6-piperidino-9-β-D-ribofuranosylpurine 3',5'-Cyclic Phosphate]	superior to cyclic AMP
CCCCCNc1ncnc2c1nc(SCc1ccccc1)n2[C@@H]1O[C@@H]2COP(=O)(O)O[C@H]2[C@H]1O [Compound 21, 8-(Benzylthio)-6-n-pentylamino-9-β-D-ribofuranosylpurine 3',5'-Cyclic Phosphate]	superior to cyclic AMP
O=P1(O)OC[C@H]2O[C@@H](n3c(Br)nc4c(NCc5ccccc5)ncnc43)[C@H](O)[C@@H]2O1 [Compound 42, 6-(Benzylamino)-8-bromo-9-β-D-ribofuranosylpurine 3',5'-Cyclic Phosphate]	superior to cyclic AMP
CCC(C)Nc1ncnc2c1nc(Sc1ccc(Cl)cc1)n2[C@@H]1O[C@@H]2COP(=O)(O)O[C@H]2[C@H]1O (stereo partly drawn) [Compound 38, 8-(p-Chlorophenylthio)-3-(1-methylbutylamino)-9-β-D-ribofuranosylpurine 3',5'-Cylic Phosphate]	superior to cyclic AMP
CSc1nc2c(NCc3ccccc3)ncnc2n1[C@@H]1O[C@@H]2COP(=O)(O)O[C@H]2[C@H]1O [Compound 43, 6-(Benzylamino)-8-(methylthio)-9-β-D-ribofuranosylpurine 3',5'-Cyclic Phosphate]	superior to cyclic AMP
O=P1(O)OC[C@H]2O[C@@H](n3c(SCc4ccccc4)nc4c(NCc5ccccc5)ncnc43)[C@H](O)[C@@H]2O1 [Compound 44, 6-(Benzylamino)-8-(benzylthio)-9-β-D-ribofuranosylpurine 3',5'-Cyclic Phosphate]	superior to cyclic AMP
